No constants are given. Whether binding was seen depends on the method and setting. For part of these data: In cells and extracts the contact can be indirect. Some results given as binding are weak or reduced against the parent protein; the word gives no strength. For part of these data: Where a sequence is shown, tags or fusion partners need not be part of it.
Assays:
[1] = target: Flag-tagged SMG6 (human) (UniProt Q86US8); test: co-IP; transiently expressed tagged NMD factor and endogenous NBAS, also in the absence of RNA
[2] = target: T1, Flag-tagged SMG7 (human) (UniProt Q92540); test: as above
T1 sequence: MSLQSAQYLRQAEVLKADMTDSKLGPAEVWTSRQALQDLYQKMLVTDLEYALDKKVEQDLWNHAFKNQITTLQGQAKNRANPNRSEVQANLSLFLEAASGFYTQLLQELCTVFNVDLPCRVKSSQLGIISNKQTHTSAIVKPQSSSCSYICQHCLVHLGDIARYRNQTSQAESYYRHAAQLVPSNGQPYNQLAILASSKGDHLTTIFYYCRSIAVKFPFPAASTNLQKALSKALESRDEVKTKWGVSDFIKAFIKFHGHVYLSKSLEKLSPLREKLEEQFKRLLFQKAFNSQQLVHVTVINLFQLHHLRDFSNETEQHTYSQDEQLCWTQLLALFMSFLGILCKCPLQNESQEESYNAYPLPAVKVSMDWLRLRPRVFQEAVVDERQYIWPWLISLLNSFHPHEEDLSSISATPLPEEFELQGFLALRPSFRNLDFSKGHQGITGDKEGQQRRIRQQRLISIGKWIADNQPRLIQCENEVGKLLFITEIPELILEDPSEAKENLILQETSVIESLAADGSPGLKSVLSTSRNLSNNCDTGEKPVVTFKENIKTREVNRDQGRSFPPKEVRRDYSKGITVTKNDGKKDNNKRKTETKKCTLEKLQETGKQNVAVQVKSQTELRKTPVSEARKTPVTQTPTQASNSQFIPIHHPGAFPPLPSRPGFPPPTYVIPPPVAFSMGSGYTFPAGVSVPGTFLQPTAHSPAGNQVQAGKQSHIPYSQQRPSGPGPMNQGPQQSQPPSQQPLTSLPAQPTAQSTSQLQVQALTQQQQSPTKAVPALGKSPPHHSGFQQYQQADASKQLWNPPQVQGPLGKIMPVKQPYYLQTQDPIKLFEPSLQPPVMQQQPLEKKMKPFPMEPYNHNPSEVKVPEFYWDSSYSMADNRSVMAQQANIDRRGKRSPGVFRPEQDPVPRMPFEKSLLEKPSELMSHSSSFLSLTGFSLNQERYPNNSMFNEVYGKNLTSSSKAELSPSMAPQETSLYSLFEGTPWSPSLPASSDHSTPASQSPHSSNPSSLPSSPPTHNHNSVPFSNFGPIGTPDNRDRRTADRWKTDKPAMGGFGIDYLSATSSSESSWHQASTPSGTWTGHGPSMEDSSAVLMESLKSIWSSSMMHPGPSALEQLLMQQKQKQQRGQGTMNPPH

Chains of the proteins cited; added tags and fusions are not shown.
UniProt Q86US8: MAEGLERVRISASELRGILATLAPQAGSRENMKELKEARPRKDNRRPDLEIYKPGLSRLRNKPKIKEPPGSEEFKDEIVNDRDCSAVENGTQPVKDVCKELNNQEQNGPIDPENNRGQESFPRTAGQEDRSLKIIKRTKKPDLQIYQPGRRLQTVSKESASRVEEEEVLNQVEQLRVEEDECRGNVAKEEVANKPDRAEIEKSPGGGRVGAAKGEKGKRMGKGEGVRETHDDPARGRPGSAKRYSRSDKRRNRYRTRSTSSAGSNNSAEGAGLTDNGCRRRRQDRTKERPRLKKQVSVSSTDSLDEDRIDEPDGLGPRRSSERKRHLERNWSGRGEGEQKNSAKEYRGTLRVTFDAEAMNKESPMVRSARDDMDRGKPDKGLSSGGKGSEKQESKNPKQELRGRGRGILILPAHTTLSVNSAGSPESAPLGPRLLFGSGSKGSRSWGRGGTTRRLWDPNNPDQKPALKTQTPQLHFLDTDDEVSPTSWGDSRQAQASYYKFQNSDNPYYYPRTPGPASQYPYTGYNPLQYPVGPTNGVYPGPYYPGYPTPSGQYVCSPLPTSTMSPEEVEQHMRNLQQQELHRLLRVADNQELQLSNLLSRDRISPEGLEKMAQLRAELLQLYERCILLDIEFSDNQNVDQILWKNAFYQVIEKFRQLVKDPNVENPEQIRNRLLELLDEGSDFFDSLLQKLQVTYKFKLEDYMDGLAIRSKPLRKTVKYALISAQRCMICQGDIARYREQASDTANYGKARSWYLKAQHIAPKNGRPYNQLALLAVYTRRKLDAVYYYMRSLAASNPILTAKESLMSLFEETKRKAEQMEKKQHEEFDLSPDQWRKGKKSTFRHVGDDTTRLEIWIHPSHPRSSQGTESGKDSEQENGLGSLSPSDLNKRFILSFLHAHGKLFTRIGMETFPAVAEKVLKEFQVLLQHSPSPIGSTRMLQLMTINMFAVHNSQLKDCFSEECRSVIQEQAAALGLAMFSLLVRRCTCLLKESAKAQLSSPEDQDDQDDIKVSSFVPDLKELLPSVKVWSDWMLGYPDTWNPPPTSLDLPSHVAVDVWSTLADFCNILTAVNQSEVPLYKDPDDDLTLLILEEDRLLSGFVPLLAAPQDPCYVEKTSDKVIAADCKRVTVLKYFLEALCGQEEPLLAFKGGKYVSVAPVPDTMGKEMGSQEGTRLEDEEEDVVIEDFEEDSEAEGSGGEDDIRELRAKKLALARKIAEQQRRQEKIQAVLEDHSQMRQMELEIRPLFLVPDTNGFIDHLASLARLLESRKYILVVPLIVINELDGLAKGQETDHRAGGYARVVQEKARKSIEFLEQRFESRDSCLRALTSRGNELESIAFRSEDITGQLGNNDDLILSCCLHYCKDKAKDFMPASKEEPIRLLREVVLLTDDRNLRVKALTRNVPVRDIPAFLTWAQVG
UniProt A2RRP1: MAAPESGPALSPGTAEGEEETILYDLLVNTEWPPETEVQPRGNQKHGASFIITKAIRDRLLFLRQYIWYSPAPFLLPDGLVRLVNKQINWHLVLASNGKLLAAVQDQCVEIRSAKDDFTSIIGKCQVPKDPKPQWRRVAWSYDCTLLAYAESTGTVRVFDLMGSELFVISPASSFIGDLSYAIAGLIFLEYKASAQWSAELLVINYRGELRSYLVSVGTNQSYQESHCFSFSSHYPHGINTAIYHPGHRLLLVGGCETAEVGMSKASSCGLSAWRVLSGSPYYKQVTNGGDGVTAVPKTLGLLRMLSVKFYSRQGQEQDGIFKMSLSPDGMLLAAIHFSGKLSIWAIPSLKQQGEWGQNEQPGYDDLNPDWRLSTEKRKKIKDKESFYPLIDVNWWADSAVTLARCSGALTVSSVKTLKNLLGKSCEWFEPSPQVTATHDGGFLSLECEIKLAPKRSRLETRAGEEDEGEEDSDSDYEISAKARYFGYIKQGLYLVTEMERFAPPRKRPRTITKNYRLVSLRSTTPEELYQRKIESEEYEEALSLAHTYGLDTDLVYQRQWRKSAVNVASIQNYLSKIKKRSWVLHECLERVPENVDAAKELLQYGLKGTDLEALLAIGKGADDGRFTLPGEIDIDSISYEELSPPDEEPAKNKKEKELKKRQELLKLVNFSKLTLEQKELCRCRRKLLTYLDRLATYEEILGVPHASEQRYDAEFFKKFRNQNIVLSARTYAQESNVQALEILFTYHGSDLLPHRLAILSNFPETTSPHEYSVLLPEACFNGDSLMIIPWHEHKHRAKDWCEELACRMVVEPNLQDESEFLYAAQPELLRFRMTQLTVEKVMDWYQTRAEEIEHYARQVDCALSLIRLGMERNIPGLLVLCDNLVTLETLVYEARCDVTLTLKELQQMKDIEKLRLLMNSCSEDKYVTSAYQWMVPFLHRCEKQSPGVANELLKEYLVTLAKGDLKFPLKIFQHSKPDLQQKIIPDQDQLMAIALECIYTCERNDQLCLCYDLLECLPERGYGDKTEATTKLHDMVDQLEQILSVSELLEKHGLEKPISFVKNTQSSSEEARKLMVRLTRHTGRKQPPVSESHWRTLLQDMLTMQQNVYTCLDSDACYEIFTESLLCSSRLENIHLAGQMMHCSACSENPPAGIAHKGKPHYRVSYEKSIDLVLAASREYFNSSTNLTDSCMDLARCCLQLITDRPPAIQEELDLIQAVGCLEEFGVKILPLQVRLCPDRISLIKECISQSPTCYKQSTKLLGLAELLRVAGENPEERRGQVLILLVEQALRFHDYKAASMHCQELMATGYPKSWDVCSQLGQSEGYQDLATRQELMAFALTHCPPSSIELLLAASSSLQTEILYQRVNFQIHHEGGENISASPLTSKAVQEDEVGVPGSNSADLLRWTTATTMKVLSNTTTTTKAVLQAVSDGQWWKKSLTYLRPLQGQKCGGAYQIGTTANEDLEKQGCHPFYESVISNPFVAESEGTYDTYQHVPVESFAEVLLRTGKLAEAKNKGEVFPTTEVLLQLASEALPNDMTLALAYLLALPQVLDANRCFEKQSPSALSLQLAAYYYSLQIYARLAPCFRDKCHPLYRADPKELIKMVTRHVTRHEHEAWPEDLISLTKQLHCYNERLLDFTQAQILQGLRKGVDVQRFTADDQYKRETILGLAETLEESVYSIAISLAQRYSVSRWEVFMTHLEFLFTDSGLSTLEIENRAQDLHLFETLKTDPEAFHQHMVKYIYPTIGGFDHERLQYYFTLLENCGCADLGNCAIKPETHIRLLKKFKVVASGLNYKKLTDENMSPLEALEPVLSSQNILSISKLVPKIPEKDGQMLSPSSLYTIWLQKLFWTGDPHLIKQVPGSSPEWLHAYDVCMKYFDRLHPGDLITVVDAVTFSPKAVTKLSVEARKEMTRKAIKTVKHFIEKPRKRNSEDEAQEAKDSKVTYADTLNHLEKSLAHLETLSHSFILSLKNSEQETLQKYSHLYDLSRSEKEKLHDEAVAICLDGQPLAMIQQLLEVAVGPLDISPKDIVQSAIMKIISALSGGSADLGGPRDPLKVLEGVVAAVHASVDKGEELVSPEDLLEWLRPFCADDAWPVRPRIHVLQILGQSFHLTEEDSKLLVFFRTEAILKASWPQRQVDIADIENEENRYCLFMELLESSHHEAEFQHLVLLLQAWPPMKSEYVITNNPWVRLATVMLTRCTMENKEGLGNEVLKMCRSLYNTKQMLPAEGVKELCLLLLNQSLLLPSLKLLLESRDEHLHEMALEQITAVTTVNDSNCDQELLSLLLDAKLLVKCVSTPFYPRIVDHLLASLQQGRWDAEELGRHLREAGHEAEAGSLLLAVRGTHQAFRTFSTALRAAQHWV
UniProt P60468: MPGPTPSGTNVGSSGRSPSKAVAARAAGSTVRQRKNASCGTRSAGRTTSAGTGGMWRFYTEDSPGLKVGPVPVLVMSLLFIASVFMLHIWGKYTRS

[3] = target: T2, full-length tagged RNA helicase DHX34 (UniProt Q14147); test: as above
T2 sequence: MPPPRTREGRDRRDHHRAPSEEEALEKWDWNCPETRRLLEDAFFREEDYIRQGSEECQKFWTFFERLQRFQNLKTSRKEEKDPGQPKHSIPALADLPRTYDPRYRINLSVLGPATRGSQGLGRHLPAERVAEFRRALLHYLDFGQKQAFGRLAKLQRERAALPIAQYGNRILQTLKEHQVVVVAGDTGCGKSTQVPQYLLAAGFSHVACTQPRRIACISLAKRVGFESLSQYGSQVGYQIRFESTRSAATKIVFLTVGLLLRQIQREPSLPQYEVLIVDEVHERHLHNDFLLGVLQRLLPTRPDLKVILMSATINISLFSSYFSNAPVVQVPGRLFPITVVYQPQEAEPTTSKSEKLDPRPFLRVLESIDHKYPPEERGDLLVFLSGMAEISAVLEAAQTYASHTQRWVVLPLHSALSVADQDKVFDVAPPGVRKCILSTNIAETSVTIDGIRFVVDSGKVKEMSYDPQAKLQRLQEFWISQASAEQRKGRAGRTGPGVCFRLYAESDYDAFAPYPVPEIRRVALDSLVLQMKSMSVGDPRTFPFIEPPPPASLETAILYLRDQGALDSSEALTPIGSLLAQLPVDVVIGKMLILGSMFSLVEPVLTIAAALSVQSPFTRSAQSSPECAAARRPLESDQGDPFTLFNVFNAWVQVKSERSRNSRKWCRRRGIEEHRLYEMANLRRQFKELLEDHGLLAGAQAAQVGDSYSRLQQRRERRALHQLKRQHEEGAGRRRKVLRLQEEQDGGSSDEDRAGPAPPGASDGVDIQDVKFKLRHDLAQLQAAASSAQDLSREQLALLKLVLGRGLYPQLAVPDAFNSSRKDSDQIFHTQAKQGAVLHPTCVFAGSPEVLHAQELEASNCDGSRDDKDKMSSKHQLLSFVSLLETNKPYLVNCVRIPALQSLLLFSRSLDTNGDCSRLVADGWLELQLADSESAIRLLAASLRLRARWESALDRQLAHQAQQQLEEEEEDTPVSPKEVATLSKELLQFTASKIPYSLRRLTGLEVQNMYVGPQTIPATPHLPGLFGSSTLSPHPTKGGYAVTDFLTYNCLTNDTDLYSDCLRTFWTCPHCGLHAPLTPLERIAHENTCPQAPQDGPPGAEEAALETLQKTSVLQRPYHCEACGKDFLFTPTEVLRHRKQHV

[4] = target: T3, Flag-tagged UPF1 (human) (UniProt Q92900); test: as above
T3 sequence: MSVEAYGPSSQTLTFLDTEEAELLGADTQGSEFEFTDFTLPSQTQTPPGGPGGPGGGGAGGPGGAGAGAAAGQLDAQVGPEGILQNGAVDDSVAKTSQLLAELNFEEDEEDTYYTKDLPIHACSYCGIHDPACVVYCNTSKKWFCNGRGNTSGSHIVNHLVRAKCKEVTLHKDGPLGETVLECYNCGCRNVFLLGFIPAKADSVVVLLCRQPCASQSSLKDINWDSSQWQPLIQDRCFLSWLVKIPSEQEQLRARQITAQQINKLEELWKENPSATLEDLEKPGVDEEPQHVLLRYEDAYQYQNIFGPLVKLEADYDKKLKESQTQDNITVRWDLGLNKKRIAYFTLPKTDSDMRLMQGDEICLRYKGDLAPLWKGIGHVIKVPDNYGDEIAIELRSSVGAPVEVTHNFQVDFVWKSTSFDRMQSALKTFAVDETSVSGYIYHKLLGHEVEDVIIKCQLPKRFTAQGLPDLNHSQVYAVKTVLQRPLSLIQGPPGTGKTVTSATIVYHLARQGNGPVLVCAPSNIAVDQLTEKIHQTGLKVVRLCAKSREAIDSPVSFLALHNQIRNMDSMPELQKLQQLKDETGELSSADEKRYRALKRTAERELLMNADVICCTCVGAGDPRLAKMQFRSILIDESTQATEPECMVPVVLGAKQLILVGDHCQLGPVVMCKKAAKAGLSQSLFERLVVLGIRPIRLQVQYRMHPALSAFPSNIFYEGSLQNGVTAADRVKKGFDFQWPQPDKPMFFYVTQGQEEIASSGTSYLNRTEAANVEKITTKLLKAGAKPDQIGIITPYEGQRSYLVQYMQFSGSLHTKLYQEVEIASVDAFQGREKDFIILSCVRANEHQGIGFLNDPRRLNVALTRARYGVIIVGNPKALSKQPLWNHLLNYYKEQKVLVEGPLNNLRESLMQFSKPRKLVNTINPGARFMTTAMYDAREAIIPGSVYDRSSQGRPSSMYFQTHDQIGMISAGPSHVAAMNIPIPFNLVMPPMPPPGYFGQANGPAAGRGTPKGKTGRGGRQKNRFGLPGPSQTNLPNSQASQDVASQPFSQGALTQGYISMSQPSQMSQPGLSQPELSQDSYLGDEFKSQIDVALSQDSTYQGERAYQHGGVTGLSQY

[5] = target: GFP-NBAS (human), A2RRP1; test: FRET or BRET; FRET-FLIM; GFP-NBAS donor and mCherry-UPF1 acceptor in fixed HeLa cells 48 h after transfection; donor fluorescence lifetime; details: remark: other sources report otherwise
[6] = target: GFP-NBAS (human), A2RRP1; test: fluorescence cross-correlation spectroscopy (FCCS); live HeLa cells transiently expressing GFP-NBAS and mCherry-UPF1 or mCherry; weakly expressing cells; details: remark: other sources report otherwise
[7] = target: Flag-tagged NBAS (human), A2RRP1; test: co-IP; Flag-tagged NBAS and endogenous UPF1, HeLa cells, also in the absence of RNA; details: remark: other sources report otherwise
[8] = target: NBAS (neuroblastoma amplified sequence), endogenous (human (endogenous in HeLa)), A2RRP1; test: proximity ligation; Duolink PLA on fixed, permeabilised cells with primary antibodies to the two proteins; details: remark: other sources report otherwise
[9] = target: SEC61B (human (endogenous in HeLa)) (UniProt P60468); test: as above

Which binding [1] does the source give for “NBAS (neuroblastoma amplified sequence), endogenous (from UniProt A2RRP1 1-2371)” here?
The binding was “binds”.

What about the binding [2] of the same molecule?
Its binding is “binds”.

And the binding [3]?
The binding was “binds”.

And the binding [4]?
The binding was “binds”.

B1: mCherry-UPF1, Q92900 1-1129 (protein)
chain: MSVEAYGPSSQTLTFLDTEEAELLGADTQGSEFEFTDFTLPSQTQTPPGGPGGPGGGGAGGPGGAGAGAAAGQLDAQVGPEGILQNGAVDDSVAKTSQLLAELNFEEDEEDTYYTKDLPIHACSYCGIHDPACVVYCNTSKKWFCNGRGNTSGSHIVNHLVRAKCKEVTLHKDGPLGETVLECYNCGCRNVFLLGFIPAKADSVVVLLCRQPCASQSSLKDINWDSSQWQPLIQDRCFLSWLVKIPSEQEQLRARQITAQQINKLEELWKENPSATLEDLEKPGVDEEPQHVLLRYEDAYQYQNIFGPLVKLEADYDKKLKESQTQDNITVRWDLGLNKKRIAYFTLPKTDSGNEDLVIIWLRDMRLMQGDEICLRYKGDLAPLWKGIGHVIKVPDNYGDEIAIELRSSVGAPVEVTHNFQVDFVWKSTSFDRMQSALKTFAVDETSVSGYIYHKLLGHEVEDVIIKCQLPKRFTAQGLPDLNHSQVYAVKTVLQRPLSLIQGPPGTGKTVTSATIVYHLARQGNGPVLVCAPSNIAVDQLTEKIHQTGLKVVRLCAKSREAIDSPVSFLALHNQIRNMDSMPELQKLQQLKDETGELSSADEKRYRALKRTAERELLMNADVICCTCVGAGDPRLAKMQFRSILIDESTQATEPECMVPVVLGAKQLILVGDHCQLGPVVMCKKAAKAGLSQSLFERLVVLGIRPIRLQVQYRMHPALSAFPSNIFYEGSLQNGVTAADRVKKGFDFQWPQPDKPMFFYVTQGQEEIASSGTSYLNRTEAANVEKITTKLLKAGAKPDQIGIITPYEGQRSYLVQYMQFSGSLHTKLYQEVEIASVDAFQGREKDFIILSCVRANEHQGIGFLNDPRRLNVALTRARYGVIIVGNPKALSKQPLWNHLLNYYKEQKVLVEGPLNNLRESLMQFSKPRKLVNTINPGARFMTTAMYDAREAIIPGSVYDRSSQGRPSSMYFQTHDQIGMISAGPSHVAAMNIPIPFNLVMPPMPPPGYFGQANGPAAGRGTPKGKTGRGGRQKNRFGLPGPSQTNLPNSQASQDVASQPFSQGALTQGYISMSQPSQMSQPGLSQPELSQDSYLGDEFKSQIDVALSQDSTYQGERAYQHGGVTGLSQY
With B1 as the molecule, how does the binding [5] read?
Its binding is “binds”.

And the binding [6]?
Its binding is “binds”.

B2: UPF1, endogenous, Q92900 1-1129 (protein)
chain: B1 chain
What does the source list for B2?
binding [7]: binds; binding [8]: binds

B3: UPF1, endogenous (protein, UniProt Q92900 1-1129)
chain: B1 chain
Which binding [9] does the source give for B3 here?
The binding was “binds”.

Reference: publication PMC7397857
